From US20190209645A1, “POTENTIATION OF ANTIBIOTIC ACTIVITY BY A NOVEL CATIONIC PEPTIDE, SPR741” (priority 2016, published 2019)
For part of these data: At least one structure is not confirmed: it was looked up by name or label, or the drawing left a doubt. Some entries share one result that the patent states for a list of compounds. Some ranges recur; such a range may be that of the whole group of compounds.

Assays:
Ec ATCC 25922 = assay: Checkerboard assay (MIC); format: cell-based, Escherichia coli; conditions: against Ec; 8-16 μg/mL SPR741
Kp ATCC 43816 = assay: Checkerboard assay (MIC); format: cell-based, Klebsiella pneumoniae; conditions: against Kp; 8-16 μg/mL SPR741
[1] = Minimum bactericidal concentration of combinations in the presence of 5% surfactant (Survanta); format: cell-based; conditions: in combination with SPR741; with or without 5% Survanta
Experimental: Efficacy was assessed in checkerboard assays. The minimum inhibitory concentration (MIC) of SPR741, antibiotics, and combinations thereof was defined as the lowest concentration that inhibited growth of Ec ATCC 25922, Ab NCTC 12156 and Kp ATCC 43816. Ec BW25113, ΔtolC and ΔacrA were used to assess the contribution of the multi drug efflux pump AcrAB-TolC to susceptibility to the combinations. Interactions were assessed by calculating fractional inhibitory concentration indices (FICI) for each combination in which the MIC differed from compounds in isolation. Interactions were defined as: FICI>4, antagonism; 0.5-4, no interaction; <0.5, synergy. The minimum bactericidal concentration of combinations in the presence of 5% surfactant (Survanta) was also determined.

C=C[C@]1(C)C[C@@H](OC(=O)CS[C@@H]2C[C@H]3CC[C@@H](C2)N3C)[C@]2(C)[C@H](C)CC[C@]3(CCC(=O)[C@H]32)[C@@H](C)[C@@H]1O [RET, retapamulin]
MIC reduction in the presence of SPR741 (Ec ATCC 25922): 32-8,000 fold
MIC reduction in the presence of SPR741 (Kp ATCC 43816): 32-8,000 fold

CO[C@H]1/C=C/O[C@@]2(C)Oc3c(C)c(O)c4c(O)c(c(/C=N/N5CCN(C)CC5)c(O)c4c3C2=O)NC(=O)/C(C)=C\C=C\[C@H](C)[C@H](O)[C@@H](C)[C@@H](O)[C@@H](C)[C@H](OC(C)=O)[C@@H]1C [RIF, rifampicin]
bactericidal activity (minimum bactericidal concentration) of the combination [1]: bactericidal at concentrations similar to the MIC irrespective of the presence of Survanta
